Test results reported in patent US20240360165A1, “INHIBITORS OF CYCLIN DEPENDENT KINASE 7 (CDK7)” (Syros Pharmaceuticals, Inc., priority 2016, published 2024).
pIC50: −log10 of the molar value. Like-named read-outs stand apart in the source and are kept apart here. The match of structure and compound is tentative.

By UniProt entry, the sequences of proteins in these tests, tags left out. Residues count along the entry.
UniProt P50613, whole entry: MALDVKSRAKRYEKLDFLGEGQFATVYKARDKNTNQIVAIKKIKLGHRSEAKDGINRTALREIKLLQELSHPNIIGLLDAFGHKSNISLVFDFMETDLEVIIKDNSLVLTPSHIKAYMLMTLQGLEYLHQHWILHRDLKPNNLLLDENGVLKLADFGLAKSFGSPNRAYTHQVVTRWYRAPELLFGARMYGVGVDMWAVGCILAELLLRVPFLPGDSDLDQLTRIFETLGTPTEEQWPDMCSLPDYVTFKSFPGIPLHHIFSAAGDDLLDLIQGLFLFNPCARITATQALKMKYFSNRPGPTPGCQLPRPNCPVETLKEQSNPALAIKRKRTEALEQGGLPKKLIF
UniProt P50750, whole entry: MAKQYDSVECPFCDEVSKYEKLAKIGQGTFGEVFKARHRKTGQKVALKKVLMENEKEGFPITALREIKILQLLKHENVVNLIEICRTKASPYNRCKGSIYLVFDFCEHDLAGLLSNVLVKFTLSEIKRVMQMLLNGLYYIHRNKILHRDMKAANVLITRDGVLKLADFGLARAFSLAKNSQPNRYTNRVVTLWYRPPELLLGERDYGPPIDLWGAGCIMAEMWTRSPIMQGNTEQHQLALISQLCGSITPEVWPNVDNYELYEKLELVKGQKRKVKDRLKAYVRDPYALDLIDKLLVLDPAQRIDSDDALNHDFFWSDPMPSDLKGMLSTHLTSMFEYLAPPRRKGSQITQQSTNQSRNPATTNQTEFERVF
UniProt Q9NYV4, 686-1082 limits assumed: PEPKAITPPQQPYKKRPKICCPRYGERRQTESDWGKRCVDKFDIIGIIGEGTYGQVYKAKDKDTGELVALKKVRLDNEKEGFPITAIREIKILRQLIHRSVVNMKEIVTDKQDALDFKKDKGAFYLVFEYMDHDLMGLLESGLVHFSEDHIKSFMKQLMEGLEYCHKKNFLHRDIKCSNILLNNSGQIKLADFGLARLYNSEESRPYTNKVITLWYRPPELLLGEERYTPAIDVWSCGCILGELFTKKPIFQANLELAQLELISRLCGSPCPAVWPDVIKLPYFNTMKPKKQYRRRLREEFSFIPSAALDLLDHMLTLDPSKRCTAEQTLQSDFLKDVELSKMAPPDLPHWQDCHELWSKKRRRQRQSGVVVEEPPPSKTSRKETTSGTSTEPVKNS
UniProt O60563, whole entry partner: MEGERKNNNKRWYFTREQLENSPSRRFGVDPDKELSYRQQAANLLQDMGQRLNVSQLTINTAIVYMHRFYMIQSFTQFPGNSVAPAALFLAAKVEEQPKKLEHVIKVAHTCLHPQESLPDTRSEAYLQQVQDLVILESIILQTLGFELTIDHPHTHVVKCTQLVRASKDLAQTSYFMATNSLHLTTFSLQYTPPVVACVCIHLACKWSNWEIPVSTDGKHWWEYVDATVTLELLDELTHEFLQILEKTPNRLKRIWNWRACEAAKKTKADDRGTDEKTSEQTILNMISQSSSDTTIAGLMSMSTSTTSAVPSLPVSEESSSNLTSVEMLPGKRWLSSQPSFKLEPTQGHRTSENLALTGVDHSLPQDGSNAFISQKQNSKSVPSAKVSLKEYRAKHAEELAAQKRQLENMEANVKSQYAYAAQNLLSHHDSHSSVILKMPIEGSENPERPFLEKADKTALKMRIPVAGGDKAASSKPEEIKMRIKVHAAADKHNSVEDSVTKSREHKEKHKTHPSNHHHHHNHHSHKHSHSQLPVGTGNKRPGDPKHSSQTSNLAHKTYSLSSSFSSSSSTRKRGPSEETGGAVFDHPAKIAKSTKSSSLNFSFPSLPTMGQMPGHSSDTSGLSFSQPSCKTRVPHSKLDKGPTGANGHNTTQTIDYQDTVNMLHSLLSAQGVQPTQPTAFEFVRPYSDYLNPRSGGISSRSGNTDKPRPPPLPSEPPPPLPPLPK
UniProt O75909, whole entry partner: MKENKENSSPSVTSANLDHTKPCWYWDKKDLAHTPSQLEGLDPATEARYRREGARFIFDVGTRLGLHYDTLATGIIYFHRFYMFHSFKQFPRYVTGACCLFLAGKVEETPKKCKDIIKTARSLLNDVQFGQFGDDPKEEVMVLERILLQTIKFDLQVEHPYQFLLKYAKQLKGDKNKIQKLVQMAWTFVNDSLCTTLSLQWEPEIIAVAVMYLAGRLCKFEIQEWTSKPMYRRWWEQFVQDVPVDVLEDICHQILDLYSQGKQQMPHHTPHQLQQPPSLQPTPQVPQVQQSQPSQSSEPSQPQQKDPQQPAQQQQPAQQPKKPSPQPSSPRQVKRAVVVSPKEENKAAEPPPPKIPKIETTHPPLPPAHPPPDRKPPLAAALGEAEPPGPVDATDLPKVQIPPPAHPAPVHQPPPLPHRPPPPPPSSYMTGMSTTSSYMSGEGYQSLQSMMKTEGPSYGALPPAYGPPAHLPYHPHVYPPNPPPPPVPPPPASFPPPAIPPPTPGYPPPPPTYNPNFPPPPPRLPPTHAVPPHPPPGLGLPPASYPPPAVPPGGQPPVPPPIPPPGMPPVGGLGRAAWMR
UniProt P51948, whole entry partner: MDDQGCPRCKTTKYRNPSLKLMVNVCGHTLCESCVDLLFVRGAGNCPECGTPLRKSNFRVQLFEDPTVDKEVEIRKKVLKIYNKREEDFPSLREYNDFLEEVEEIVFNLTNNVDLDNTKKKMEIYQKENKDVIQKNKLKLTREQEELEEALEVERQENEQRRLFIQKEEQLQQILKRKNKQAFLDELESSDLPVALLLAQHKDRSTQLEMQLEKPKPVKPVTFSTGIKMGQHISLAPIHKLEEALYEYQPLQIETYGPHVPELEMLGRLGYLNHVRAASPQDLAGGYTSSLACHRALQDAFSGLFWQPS
UniProt P51946, whole entry partner: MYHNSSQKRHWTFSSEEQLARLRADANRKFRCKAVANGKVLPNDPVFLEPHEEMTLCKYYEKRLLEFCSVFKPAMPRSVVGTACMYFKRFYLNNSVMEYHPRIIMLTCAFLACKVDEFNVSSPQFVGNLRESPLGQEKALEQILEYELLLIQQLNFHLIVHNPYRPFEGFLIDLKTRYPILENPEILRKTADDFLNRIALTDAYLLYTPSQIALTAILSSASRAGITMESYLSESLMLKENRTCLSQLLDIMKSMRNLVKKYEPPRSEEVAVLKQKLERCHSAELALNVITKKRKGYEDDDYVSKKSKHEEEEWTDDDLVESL

What was measured:
[1] = target: CDK7/Cyclin H/MAT1 complex (Homo sapiens, UniProt P50613); experiment: CDK7 inhibition assay (Caliper/LabChip EZ Reader kinase assay); conditions: read-out: CDK7, Table 1, CDK7/Cyclin H/MAT1 6 nM, ATP 2 mM, 35 min at 27° C.
CDK9/Cyclin T1 complex = CDK9/Cyclin T1 complex (Homo sapiens, UniProt P50750); experiment: CDK9 inhibition assay (Caliper/LabChip EZ Reader kinase assay); conditions: read-out: CDK9, Table 1, CDK9/Cyclin T1 8 nM, ATP 2 mM, 15 min at 27° C.
[2] = target: CDK12 (aa686-1082)/Cyclin K complex (Homo sapiens, UniProt Q9NYV4); experiment: CDK12 inhibition assay (Caliper/LabChip EZ Reader kinase assay); conditions: read-out: CDK12, Table 1, CDK12 (aa686-1082)/Cyclin K 50 nM, ATP 2 mM, 3 hr at 27° C.
A673 cells = experiment: Inhibition of proliferation of A673 cells (CyQUANT, 72 hour)
CDK2/Cyclin E1 complex = CDK2/Cyclin E1 complex (Homo sapiens, UniProt P24941); experiment: CDK2 inhibition assay (Caliper/LabChip EZ Reader kinase assay); conditions: read-out: CDK2, Table 1, CDK2/Cyclin E1 0.5 nM, ATP 2 mM, 35 min at 27° C.
HCC70 cells = experiment: Inhibition of proliferation of HCC70 cells (CyQUANT Direct Cell Proliferation Assay, 72 hour); conditions: read-out: Inhibition of Proliferation of HCC70 Cells (calculated IC50)
[3] = read-out: Inhibition of Proliferation of A673 Cells (calculated IC50)

| Structure (SMILES) | pIC50 [1] | pIC50 (CDK9/Cyclin T1 complex) | pIC50 [2] | pIC50 (A673 cells; [3]) | pIC50 (CDK2/Cyclin E1 complex) | pIC50 (HCC70 cells) | pIC50 ([1]; tested form: formate) | pIC50 (CDK9/Cyclin T1 complex; tested form: formate) | pIC50 ([2]; tested form: formate) | pIC50 (CDK2/Cyclin E1 complex; tested form: formate) | pIC50 (A673 cells; read-out: Inhibition of Proliferation of A673 Cells (calculated IC50), tested form: formate) |
| --- | --- | --- | --- | --- | --- | --- | --- | --- | --- | --- | --- |
| O=S1(=O)CCN(c2cccc3c(-c4nc(N[C@H]5CCCNC5)ncc4Cl)c[nH]c23)CC1 [Compound 196, 5-chloro-4-[7-(1,1-dioxo-1,4-thiazinan-4-yl)-1H-indol-3-yl]-N-[(3S)-3-piperidyl]pyrimidin-2-amine] | 6.70 to 7.70 | 5.30 to 6.70 | 5.30 to 6.70 |  |  |  |  |  |  |  |  |
| O=C(c1ccc2c(-c3nc(N[C@H]4CCCNC4)ncc3C(F)(F)F)c[nH]c2c1)N1CCCC1 [Compound 278, [3-[2-[[(3S)-3-piperidyl]amino]-5-(trifluoromethyl)pyrimidin-4-yl]-1H-indol-6-yl]-Pyrrolidin-1-yl-methanone] | > 7.70 | 5.30 to 6.70 | 5.30 to 6.70 | > 7.70 |  |  |  |  |  |  |  |
| FC(F)n1ccc(-c2ccc3c(-c4nc(N[C@H]5CCCNC5)ncc4C(F)(F)F)c[nH]c3c2)n1 [Compound 289, 4-[6-[1-(difluoromethyl)pyrazol-3-yl]-1H-indol-3-yl]-N-[(3S)-3-piperidyl]-5-(trifluoromethyl) pyrimidin-2-amine] | 6.70 to 7.70 | 5.30 to 6.70 | 6.70 to 7.70 |  |  |  |  |  |  |  |  |
| FC(F)n1cc(-c2ccc3c(-c4nc(N[C@H]5CCCNC5)ncc4C(F)(F)F)c[nH]c3c2)cn1 [Compound 290, 4-[6-[1-(difluoromethyl)pyrazol-4-yl]-1H-indol-3-yl]-N-[(3S)-3-piperidyl]-5-(trifluoromethyl) pyrimidin-2-amine] | 6.70 to 7.70 | < 5.30 | 5.30 to 6.70 |  | < 5.30 |  |  |  |  |  |  |
| O=C1CCN(C(=O)c2ccc3c(-c4nc(N[C@H]5CCCNC5)ncc4C(F)(F)F)c[nH]c3c2)C1 [Compound 302, 1-[3-[2-[[(3S)-3-piperidyl]amino]-5-(trifluoromethyl)pyrimidin-4-yl]-1H-indole-6-carbonyl] pyrrolidin-3-one] | > 7.70 | 5.30 to 6.70 | 6.70 to 7.70 | > 7.70 |  | > 7.00 |  |  |  |  |  |
| CC(C)S(=O)(=O)c1ccc2c(-c3nc(N[C@H]4CCCNC4)ncc3C(F)(F)F)c[nH]c2c1 [Compound 346, 4-(6-isopropylsulfonyl-1H-indol-3-yl)-N-[(3S)-3-piperidyl]-5-(trifluoromethyl) pyrimidin-2-amine] | > 7.70 | 5.30 to 6.70 | 6.70 to 7.70 | 6.70 to 7.70 |  | > 7.00 |  |  |  |  |  |
| CN1CCC[C@H](Nc2ncc(C(F)(F)F)c(-c3c[nH]c4cc(S(C)(=O)=O)ccc34)n2)C1 [Compound 364, N-[(3S)-1-methyl-3-piperidyl]-4-(6-methylsulfonyl-1H-indol-3-yl)-5-(trifluoromethyl)pyrimidin-2-amine] | > 7.70 | 5.30 to 6.70 | 6.70 to 7.70 | > 7.70 | 5.30 to 6.70 |  |  |  |  |  |  |
| O=S(=O)(CF)c1ccc2c(-c3nc(N[C@H]4CCCNC4)ncc3C(F)(F)F)c[nH]c2c1 [Compound 365, 4-[6-(fluoromethylsulfonyl)-1H-indol-3-yl]-N-[(3S)-3-piperidyl]-5-(trifluoromethyl)pyrimidin-2-amine] | 6.70 to 7.70 | < 5.30 | < 5.30 | 5.30 to 6.70 | < 5.30 |  |  |  |  |  |  |
| O=S(=O)(c1ccc2c(-c3nc(N[C@H]4CCCNC4)ncc3C(F)(F)F)c[nH]c2c1)C(F)F [Compound 375, 4-[6-(difluoromethylsulfonyl)-1H-indol-3-yl]-N-[(3S)-3-piperidyl]-5-(trifluoromethyl)pyrimidin-2-amine] |  |  |  |  |  |  | 5.30 to 6.70 | 5.30 to 6.70 | < 5.30 | < 5.30 | 5.30 to 6.70 |
